Assay results published in the supplement of paper PMC12067093, “Discovery and optimisation of a covalent ligand for TRIM25 and its application to targeted protein ubiquitination” (Chemical Science, 2025).
The other results are listed elsewhere or left out.

The chains behind the UniProt entries cited, without tags or fusion partners. Where a name states a change or a piece, a line headed by the entry shows the natural chain unless it says otherwise.
UniProt Q9H3U1: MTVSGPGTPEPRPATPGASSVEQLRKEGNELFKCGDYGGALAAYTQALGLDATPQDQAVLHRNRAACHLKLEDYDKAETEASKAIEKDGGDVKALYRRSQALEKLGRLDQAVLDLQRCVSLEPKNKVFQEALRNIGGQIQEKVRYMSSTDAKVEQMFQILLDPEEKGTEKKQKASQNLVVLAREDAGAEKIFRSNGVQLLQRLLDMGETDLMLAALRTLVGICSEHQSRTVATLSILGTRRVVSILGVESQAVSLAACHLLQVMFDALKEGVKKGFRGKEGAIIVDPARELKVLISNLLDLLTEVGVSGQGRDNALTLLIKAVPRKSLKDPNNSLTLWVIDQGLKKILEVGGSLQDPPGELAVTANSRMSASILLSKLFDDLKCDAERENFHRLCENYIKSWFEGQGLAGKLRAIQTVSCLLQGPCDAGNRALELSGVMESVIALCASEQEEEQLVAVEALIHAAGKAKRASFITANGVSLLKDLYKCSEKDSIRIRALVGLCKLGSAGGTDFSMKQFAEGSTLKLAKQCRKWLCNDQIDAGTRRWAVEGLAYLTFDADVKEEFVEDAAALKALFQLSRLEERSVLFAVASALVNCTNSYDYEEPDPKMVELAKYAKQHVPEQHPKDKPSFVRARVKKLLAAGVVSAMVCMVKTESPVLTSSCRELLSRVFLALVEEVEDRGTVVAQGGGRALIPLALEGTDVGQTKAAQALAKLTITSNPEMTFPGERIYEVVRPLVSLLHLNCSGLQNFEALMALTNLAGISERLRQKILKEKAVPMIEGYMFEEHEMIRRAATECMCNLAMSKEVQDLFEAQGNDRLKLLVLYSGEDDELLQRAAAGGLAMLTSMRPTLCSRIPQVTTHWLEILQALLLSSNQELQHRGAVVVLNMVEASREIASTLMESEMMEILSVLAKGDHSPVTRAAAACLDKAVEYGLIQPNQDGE
UniProt P54578: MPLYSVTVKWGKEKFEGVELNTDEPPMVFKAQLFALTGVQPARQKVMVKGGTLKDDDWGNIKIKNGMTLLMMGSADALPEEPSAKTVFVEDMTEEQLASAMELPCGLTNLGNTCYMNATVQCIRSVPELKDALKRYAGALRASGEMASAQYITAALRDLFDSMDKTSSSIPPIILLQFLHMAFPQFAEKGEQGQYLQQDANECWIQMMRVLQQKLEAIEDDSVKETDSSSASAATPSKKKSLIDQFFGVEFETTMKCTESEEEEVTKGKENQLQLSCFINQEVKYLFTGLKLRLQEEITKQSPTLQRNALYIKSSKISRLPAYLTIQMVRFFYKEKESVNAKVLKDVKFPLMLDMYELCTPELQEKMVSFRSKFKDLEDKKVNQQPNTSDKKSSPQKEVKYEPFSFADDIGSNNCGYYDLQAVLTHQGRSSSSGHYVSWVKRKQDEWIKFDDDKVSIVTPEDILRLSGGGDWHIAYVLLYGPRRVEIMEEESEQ
UniProt O60763: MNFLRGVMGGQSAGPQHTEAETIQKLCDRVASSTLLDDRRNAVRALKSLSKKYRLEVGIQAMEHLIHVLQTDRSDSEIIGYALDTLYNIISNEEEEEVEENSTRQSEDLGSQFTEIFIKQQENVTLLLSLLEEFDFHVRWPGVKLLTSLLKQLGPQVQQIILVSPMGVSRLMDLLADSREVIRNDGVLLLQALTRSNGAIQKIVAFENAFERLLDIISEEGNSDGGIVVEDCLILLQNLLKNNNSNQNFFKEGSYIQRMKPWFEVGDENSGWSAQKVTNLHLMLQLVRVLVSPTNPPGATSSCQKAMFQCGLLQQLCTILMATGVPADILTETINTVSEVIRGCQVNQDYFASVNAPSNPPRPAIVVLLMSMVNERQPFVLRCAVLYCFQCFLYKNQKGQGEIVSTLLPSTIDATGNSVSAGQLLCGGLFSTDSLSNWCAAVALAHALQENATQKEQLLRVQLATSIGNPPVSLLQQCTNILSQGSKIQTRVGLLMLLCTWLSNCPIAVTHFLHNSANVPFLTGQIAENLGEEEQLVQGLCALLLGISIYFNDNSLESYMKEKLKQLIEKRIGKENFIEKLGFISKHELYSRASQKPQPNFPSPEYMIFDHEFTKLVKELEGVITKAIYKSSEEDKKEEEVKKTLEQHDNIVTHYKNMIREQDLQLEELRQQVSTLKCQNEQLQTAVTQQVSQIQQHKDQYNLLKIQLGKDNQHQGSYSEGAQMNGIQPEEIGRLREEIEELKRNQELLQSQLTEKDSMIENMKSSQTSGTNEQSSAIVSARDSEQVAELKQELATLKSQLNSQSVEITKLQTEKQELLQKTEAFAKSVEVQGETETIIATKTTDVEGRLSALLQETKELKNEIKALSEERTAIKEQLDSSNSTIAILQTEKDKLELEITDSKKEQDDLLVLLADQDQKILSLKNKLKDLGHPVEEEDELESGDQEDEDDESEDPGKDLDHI
UniProt P51784: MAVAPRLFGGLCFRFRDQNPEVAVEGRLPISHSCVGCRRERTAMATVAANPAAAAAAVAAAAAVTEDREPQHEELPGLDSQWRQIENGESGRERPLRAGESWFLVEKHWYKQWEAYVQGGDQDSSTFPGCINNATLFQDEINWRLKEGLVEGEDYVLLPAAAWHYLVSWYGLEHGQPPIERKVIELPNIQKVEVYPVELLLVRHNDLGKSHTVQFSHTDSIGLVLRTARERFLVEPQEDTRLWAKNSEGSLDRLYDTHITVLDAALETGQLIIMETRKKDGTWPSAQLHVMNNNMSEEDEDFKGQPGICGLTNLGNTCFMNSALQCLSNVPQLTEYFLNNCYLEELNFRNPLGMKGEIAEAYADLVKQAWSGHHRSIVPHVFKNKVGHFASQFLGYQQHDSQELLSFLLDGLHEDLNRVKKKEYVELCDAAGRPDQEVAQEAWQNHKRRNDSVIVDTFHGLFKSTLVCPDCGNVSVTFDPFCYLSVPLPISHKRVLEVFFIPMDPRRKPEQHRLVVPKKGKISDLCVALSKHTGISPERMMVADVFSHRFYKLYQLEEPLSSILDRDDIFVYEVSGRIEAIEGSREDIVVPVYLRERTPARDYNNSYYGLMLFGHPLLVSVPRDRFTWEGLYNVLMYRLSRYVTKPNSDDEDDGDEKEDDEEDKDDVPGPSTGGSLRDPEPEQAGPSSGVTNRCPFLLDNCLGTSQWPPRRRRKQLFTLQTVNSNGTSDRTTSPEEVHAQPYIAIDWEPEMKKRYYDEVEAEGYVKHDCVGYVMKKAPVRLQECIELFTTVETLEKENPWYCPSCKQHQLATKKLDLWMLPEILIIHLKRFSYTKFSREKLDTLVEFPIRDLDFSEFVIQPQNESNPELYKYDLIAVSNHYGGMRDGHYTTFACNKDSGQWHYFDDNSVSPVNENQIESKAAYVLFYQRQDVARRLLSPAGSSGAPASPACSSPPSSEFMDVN
UniProt Q9Y5T5, whole entry, looked up: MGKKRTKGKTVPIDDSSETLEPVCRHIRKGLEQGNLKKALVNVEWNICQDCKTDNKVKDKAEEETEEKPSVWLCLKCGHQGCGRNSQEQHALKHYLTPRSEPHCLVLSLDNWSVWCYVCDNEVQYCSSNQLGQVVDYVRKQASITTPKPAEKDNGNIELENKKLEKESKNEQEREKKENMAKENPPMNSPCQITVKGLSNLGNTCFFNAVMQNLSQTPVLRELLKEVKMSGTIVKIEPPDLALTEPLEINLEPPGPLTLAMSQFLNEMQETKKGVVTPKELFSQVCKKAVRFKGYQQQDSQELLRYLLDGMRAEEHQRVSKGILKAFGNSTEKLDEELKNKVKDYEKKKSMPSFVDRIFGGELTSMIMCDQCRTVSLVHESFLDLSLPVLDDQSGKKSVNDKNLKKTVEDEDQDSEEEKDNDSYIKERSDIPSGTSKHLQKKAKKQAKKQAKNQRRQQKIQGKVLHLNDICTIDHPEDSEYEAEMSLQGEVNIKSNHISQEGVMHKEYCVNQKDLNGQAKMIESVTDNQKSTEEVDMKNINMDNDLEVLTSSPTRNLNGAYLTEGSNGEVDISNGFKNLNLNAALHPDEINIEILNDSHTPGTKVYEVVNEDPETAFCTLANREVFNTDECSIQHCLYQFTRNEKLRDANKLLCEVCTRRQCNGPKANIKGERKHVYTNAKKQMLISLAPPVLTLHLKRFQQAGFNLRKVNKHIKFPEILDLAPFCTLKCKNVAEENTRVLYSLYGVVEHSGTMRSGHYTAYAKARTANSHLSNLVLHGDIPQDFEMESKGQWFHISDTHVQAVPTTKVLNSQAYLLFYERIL
UniProt A6NIH7: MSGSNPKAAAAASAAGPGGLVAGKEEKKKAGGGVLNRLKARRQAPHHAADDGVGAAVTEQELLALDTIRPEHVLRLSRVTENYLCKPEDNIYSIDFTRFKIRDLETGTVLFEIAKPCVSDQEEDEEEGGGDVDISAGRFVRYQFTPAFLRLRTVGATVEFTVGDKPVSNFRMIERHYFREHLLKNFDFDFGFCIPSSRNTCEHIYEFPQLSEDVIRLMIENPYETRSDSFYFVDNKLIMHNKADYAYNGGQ
UniProt Q53GS9: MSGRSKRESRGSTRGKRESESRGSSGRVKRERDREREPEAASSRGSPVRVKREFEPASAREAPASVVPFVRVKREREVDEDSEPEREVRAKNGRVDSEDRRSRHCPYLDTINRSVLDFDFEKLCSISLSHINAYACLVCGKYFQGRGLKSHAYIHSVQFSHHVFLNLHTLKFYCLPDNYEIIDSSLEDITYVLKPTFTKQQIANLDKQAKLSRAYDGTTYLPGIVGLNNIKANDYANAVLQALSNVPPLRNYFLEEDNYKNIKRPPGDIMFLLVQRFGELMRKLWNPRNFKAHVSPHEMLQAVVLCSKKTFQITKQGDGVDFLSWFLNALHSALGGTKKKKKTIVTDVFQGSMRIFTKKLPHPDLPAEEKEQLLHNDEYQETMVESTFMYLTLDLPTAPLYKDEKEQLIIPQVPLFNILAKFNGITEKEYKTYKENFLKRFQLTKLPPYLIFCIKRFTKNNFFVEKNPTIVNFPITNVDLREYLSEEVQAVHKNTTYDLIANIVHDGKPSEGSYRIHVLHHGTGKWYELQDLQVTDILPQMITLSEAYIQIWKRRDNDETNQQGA
UniProt Q9Y6I4: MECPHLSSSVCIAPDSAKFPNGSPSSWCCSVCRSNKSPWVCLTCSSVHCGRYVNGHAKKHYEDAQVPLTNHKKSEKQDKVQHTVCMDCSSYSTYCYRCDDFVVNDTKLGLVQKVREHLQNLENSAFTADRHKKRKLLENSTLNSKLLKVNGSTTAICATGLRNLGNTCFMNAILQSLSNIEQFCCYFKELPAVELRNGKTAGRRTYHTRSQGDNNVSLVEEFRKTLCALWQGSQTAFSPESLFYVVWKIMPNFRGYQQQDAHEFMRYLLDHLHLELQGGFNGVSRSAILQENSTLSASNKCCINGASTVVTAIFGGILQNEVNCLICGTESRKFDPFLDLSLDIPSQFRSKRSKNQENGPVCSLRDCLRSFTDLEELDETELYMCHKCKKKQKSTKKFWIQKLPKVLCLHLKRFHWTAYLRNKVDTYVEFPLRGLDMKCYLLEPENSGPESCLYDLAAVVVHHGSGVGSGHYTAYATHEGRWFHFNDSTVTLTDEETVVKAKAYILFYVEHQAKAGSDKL
UniProt O60701: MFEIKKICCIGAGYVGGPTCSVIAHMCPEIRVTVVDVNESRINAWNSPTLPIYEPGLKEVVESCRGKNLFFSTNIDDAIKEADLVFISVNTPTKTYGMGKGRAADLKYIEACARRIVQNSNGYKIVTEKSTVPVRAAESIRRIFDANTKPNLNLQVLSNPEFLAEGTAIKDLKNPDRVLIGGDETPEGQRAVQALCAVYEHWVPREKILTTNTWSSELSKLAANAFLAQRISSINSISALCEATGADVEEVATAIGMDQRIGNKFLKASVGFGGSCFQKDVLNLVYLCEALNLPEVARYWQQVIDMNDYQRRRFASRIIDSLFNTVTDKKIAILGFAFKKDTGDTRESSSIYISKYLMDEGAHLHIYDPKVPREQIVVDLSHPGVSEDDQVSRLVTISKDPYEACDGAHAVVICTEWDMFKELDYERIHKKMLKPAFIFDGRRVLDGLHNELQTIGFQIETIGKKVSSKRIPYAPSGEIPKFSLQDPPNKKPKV
UniProt Q8N806: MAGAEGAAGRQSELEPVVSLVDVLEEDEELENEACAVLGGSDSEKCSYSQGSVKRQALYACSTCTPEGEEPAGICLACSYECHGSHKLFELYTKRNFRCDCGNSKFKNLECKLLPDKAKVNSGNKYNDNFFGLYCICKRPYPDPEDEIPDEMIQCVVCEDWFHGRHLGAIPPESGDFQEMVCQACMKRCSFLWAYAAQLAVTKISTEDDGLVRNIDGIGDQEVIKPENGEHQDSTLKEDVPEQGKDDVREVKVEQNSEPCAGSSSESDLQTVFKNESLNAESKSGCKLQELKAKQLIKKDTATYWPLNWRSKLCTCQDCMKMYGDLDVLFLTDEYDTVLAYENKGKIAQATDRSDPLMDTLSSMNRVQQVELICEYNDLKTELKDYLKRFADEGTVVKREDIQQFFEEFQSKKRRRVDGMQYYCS

Compound: Cc1cc(ccc1-c1ccccc1)C(=O)N1CCCN(CC1)C(=O)CCl [compound 10]
Assay: probe-labelled cysteine peptide fold change vs DMSO (competition) (log2 fold change); higher = less target engagement (more negative = stronger competition)
Conditions: THP-1, incubation time: 4 h
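Note: competitive profiling in live THP-1 cells: cysteine peptides tagged with an iodoacetamide desthiobiotin (IA-DTB) probe, intensity after compound treatment relative to DMSO-treated cells.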

Target	probe-labelled cysteine peptide fold change (10 µM)	probe-labelled cysteine peptide fold change (50 µM)
USP40_Q9NVE5_832_MGSSLGLCLGK (UniProt Q9NVE5)	0.122	-0.176
USP7_Q93009_961_IIGVHQEDELLECLSPATSR (UniProt Q93009)	-0.243	0.108
USP25_Q9UHP3_336_DLHECLEAAMIEGEIESLHSENSGK (UniProt Q9UHP3)	0.0488	0.0429
UNC45A_Q9H3U1_503_ALVGLCK (UniProt Q9H3U1)	0.0377	-0.217
UNC119_Q13432_190_NTCEHIYDFPPLSEELISEMIR (UniProt Q13432)	-0.236	-0.312
USP14_P54578_277_ENQLQLSCFINQEVK (UniProt P54578)	-0.0297	-0.0631
USO1_O60763_678_CQNEQLQTAVTQQVSQIQQHK (UniProt O60763)	-0.0859	-0.0137
UEVLD_Q8IX04_5_MEFDCEGLR (UniProt Q8IX04)	0.0527	0.12
USP14_P54578_359_FPLMLDMYELCTPELQEK (UniProt P54578)	-0.0328	-0.0621
USP11_P51784_894_DGHYTTFACNK (UniProt P51784)	-0.051	-0.393
USP16_Q9Y5T5_24_TVPIDDSSETLEPVCR (UniProt Q9Y5T5)	-0.224	-0.204
UNC119B_A6NIH7_201_NTCEHIYEFPQLSEDVIR (UniProt A6NIH7)	0.0555	0.0712
USP39_Q53GS9_105_HCPYLDTINR (UniProt Q53GS9)	-0.189	-0.101
URI1_O94763_268_NTNVNAMHQVTDSHTPCHK (UniProt O94763)	-0.157	-0.238
UGGT1_Q9NYU2_1475_SLPQEWLWCETWCDDASK (UniProt Q9NYU2)	0.0416	0.133
USP3_Q9Y6I4_49_SPWVCLTCSSVHCGR (UniProt Q9Y6I4)	-0.0125	-0.103
UPF1_Q92900_675+683_QLILVGDHCQLGPVVMCK (UniProt Q92900)	-0.248	-0.549
UNC45A_Q9H3U1_384_CDAERENFHR (UniProt Q9H3U1)	-0.0746	-0.616
UGDH_O60701_276_ASVGFGGSCFQK (UniProt O60701)	-0.0102	0.16
UBR7_Q8N806_424_VDGMQYYCS (UniProt Q8N806)	-0.00109	-0.295

As a short view, some entries already given.
Target	probe-labelled cysteine peptide fold change (10 µM)	probe-labelled cysteine peptide fold change (50 µM)
UNC119_Q13432_190_NTCEHIYDFPPLSEELISEMIR (UniProt Q13432)	-0.236	-0.312
USP14_P54578_277_ENQLQLSCFINQEVK (UniProt P54578)	-0.0297	-0.0631
USO1_O60763_678_CQNEQLQTAVTQQVSQIQQHK (UniProt O60763)	-0.0859	-0.0137
